PMC10987644
These are yes or no findings as the source states them, for the method shown. In cells and extracts the contact can be indirect. These calls come from enrichment with a bait or labelling near it, and not all partners need be listed.

The chains behind the UniProt entries cited, without tags or fusion partners.
UniProt P11940: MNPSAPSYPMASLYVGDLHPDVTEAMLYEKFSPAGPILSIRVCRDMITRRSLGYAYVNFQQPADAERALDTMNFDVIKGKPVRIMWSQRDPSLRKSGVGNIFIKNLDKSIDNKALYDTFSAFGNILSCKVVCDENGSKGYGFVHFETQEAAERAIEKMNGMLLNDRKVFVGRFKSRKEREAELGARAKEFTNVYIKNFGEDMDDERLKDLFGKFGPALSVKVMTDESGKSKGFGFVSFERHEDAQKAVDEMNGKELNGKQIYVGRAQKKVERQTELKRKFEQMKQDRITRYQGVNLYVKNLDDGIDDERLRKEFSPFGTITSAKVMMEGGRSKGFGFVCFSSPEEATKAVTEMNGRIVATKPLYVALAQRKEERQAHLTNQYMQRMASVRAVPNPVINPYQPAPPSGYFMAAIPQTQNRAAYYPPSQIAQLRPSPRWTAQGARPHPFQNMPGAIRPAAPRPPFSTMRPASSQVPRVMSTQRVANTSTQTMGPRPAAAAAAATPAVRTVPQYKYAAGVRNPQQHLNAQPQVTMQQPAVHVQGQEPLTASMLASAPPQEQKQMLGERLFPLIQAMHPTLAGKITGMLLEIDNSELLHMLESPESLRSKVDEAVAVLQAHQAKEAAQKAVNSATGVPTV

T1: MEX-3 RNA binding family member A (MEX3A) (human) (UniProt A1L020)
T1 sequence: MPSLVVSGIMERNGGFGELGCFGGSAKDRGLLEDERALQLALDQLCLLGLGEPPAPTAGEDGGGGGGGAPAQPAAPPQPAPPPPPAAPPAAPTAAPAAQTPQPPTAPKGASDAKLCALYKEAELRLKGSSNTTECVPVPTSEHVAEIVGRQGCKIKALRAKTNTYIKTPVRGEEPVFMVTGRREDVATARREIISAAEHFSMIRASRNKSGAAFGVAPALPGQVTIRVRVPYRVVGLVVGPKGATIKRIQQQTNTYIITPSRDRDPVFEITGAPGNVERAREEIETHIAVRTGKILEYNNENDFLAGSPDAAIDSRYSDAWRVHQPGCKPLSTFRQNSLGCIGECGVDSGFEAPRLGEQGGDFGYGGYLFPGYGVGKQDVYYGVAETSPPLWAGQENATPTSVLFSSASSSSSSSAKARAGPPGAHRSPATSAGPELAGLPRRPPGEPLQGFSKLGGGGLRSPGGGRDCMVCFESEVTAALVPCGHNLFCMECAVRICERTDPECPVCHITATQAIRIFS


These molecules were tested against T1, MEX-3 RNA binding family member A (MEX3A) (human) (assay: affinity purification with mass spectrometry; co-immunoprecipitation of MEX3A from 293T cells, silver staining, mass spectrometry; hits with area ratio (MEX3A/CTRL) > 2 and unique peptides > 2).

Row | Molecule | binding
1 | PABP1 (from UniProt P11940 1-636) | binds
2 | MOV10 (protein, UniProt Q9HCE1 1-1003) MPSKFSCRQLREAGQCFESFLVVRGLDMETDRERLRTIYNRDFKISFGTPAPGFSSMLYGMKIANLAYVTKTRVRFFRLDRWADVRFPEKRRMKLGSDISKHHKSLLAKIFYDRAEYLHGKHGVDVEVQGPHEARDGQLLIRLDLNRKEVLTLRLRNGGTQSVTLTHLFPLCRTPQFAFYNEDQELPCPLGPGECYELHVHCKTSFVGYFPATVLWELLGPGESGSEGAGTFYIARFLAAVAHSPLAAQLKPMTPFKRTRITGNPVVTNRIEEGERPDRAKGYDLELSMALGTYYPPPRLRQLLPMLLQGTSIFTAPKEIAEIKAQLETALKWRNYEVKLRLLLHLEELQMEHDIRHYDLESVPMTWDPVDQNPRLLTLEVPGVTESRPSVLRGDHLFALLSSETHQEDPITYKGFVHKVELDRVKLSFSMSLLSRFVDGLTFKVNFTFNRQPLRVQHRALELTGRWLLWPMLFPVAPRDVPLLPSDVKLKLYDRSLESNPEQLQAMRHIVTGTTRPAPYIIFGPPGTGKTVTLVEAIKQVVKHLPKAHILACAPSNSGADLLCQRLRVHLPSSIYRLLAPSRDIRMVPEDIKPCCNWDAKKGEYVFPAKKKLQEYRVLITTLITAGRLVSAQFPIDHFTHIFIDEAGHCMEPESLVAIAGLMEVKETGDPGGQLVLAGDPRQLGPVLRSPLTQKHGLGYSLLERLLTYNSLYKKGPDGYDPQFITKLLRNYRSHPTILDIPNQLYYEGELQACADVVDRERFCRWAGLPRQGFPIIFHGVMGKDEREGNSPSFFNPEEAATVTSYLKLLLAPSSKKGKARLSPRSVGVISPYRKQVEKIRYCITKLDRELRGLDDIKDLKVGSVEEFQGQERSVILISTVRSSQSFVQLDLDFNLGFLKNPKRFNVAVTRAKALLIIVGNPLLLGHDPDWKVFLEFCKENGGYTGCPFPAKLDLQQGQNLLQGLSKLSPSTSGPHSHDYLPQEREGEGGLSLQVEPEWRNEL | binds
3 | UPF1 (protein, UniProt Q92900 1-1129) MSVEAYGPSSQTLTFLDTEEAELLGADTQGSEFEFTDFTLPSQTQTPPGGPGGPGGGGAGGPGGAGAGAAAGQLDAQVGPEGILQNGAVDDSVAKTSQLLAELNFEEDEEDTYYTKDLPIHACSYCGIHDPACVVYCNTSKKWFCNGRGNTSGSHIVNHLVRAKCKEVTLHKDGPLGETVLECYNCGCRNVFLLGFIPAKADSVVVLLCRQPCASQSSLKDINWDSSQWQPLIQDRCFLSWLVKIPSEQEQLRARQITAQQINKLEELWKENPSATLEDLEKPGVDEEPQHVLLRYEDAYQYQNIFGPLVKLEADYDKKLKESQTQDNITVRWDLGLNKKRIAYFTLPKTDSGNEDLVIIWLRDMRLMQGDEICLRYKGDLAPLWKGIGHVIKVPDNYGDEIAIELRSSVGAPVEVTHNFQVDFVWKSTSFDRMQSALKTFAVDETSVSGYIYHKLLGHEVEDVIIKCQLPKRFTAQGLPDLNHSQVYAVKTVLQRPLSLIQGPPGTGKTVTSATIVYHLARQGNGPVLVCAPSNIAVDQLTEKIHQTGLKVVRLCAKSREAIDSPVSFLALHNQIRNMDSMPELQKLQQLKDETGELSSADEKRYRALKRTAERELLMNADVICCTCVGAGDPRLAKMQFRSILIDESTQATEPECMVPVVLGAKQLILVGDHCQLGPVVMCKKAAKAGLSQSLFERLVVLGIRPIRLQVQYRMHPALSAFPSNIFYEGSLQNGVTAADRVKKGFDFQWPQPDKPMFFYVTQGQEEIASSGTSYLNRTEAANVEKITTKLLKAGAKPDQIGIITPYEGQRSYLVQYMQFSGSLHTKLYQEVEIASVDAFQGREKDFIILSCVRANEHQGIGFLNDPRRLNVALTRARYGVIIVGNPKALSKQPLWNHLLNYYKEQKVLVEGPLNNLRESLMQFSKPRKLVNTINPGARFMTTAMYDAREAIIPGSVYDRSSQGRPSSMYFQTHDQIGMISAGPSHVAAMNIPIPFNLVMPPMPPPGYFGQANGPAAGRGTPKGKTGRGGRQKNRFGLPGPSQTNLPNSQASQDVASQPFSQGALTQGYISMSQPSQMSQPGLSQPELSQDSYLGDEFKSQIDVALSQDSTYQGERAYQHGGVTGLSQY | binds
